Experimental data as given in the supplement of paper PMC12823440, “Inhibitors supercharge kinase turnover through native proteolytic circuits” (Nature, 2025).
Structures can show the parent of a compound that is named as a salt. Some of the results follow. Hit calls seldom repeat between salt and free forms of one compound.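 In K562 cells expressing nanoluciferase-fused kinases, luminescence was recorded at 4 h intervals between 2 and 18 h, normalized as percent of control with DMSO at 100% and a positive control at 0%. A significant (2 sigma) signal drop marks a time point as decreased. The authors' rule for a hit is not shown and takes in more than the number of time points.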

Sequences of proteins named here, by UniProt entry; tags and fusion partners are left off. A change or cut given only in a name is not applied to a line headed by its entry.
UniProt P07949, whole entry, looked up: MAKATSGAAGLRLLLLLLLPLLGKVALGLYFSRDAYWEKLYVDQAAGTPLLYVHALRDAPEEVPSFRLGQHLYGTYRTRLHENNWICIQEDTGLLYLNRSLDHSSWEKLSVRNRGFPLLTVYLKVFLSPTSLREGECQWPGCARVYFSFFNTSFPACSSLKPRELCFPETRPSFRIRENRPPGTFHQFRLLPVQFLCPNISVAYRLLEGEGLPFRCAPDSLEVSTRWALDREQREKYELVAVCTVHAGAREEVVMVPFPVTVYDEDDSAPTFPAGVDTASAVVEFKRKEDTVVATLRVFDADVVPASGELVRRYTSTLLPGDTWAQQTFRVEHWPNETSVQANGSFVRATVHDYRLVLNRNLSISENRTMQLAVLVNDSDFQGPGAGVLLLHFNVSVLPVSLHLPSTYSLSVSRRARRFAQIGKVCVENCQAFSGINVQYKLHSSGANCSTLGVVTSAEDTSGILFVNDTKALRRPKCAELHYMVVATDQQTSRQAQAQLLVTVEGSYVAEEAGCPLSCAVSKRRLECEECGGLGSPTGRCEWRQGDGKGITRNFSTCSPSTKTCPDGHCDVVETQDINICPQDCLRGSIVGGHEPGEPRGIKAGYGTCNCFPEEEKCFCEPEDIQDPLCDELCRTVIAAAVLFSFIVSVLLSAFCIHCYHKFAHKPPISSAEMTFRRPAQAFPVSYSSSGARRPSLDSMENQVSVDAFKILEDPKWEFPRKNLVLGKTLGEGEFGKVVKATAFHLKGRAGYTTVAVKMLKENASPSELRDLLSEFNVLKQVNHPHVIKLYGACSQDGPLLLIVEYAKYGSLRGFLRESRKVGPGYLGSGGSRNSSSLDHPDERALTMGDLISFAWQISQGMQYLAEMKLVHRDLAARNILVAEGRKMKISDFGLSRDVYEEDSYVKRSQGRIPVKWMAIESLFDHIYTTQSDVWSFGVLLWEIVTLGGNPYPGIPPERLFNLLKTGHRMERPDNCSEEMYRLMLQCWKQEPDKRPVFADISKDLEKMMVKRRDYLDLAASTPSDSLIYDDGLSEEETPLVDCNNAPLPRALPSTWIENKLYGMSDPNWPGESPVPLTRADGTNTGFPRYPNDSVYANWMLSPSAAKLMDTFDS
UniProt P07949, whole entry M918T, looked up: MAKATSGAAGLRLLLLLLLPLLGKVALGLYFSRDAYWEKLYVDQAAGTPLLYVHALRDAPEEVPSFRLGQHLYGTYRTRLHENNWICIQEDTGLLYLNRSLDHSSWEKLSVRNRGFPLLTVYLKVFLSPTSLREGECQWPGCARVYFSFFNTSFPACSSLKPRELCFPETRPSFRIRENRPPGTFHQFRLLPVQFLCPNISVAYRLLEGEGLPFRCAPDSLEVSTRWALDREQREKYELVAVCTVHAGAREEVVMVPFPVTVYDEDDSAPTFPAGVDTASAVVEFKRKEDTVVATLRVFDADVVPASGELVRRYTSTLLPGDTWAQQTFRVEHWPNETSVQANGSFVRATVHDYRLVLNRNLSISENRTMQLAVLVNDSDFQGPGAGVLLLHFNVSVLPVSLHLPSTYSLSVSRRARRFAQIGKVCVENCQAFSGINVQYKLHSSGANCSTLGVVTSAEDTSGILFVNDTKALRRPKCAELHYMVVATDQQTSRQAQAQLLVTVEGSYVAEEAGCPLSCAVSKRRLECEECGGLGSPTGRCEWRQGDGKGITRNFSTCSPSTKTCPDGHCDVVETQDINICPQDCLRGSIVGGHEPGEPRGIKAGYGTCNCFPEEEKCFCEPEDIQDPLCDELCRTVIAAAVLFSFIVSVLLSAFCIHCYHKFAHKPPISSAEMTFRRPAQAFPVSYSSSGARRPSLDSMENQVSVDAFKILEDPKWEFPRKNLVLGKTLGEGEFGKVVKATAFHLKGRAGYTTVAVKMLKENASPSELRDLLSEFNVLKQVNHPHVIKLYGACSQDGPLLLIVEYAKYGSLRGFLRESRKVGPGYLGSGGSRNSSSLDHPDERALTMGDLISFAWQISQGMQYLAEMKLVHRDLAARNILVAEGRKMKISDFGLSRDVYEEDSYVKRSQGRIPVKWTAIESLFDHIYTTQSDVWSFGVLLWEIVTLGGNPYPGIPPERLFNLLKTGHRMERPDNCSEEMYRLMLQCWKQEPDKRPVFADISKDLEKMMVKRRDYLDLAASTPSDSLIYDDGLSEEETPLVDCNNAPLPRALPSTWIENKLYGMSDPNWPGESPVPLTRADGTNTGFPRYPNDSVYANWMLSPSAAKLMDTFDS
UniProt Q9BRS2: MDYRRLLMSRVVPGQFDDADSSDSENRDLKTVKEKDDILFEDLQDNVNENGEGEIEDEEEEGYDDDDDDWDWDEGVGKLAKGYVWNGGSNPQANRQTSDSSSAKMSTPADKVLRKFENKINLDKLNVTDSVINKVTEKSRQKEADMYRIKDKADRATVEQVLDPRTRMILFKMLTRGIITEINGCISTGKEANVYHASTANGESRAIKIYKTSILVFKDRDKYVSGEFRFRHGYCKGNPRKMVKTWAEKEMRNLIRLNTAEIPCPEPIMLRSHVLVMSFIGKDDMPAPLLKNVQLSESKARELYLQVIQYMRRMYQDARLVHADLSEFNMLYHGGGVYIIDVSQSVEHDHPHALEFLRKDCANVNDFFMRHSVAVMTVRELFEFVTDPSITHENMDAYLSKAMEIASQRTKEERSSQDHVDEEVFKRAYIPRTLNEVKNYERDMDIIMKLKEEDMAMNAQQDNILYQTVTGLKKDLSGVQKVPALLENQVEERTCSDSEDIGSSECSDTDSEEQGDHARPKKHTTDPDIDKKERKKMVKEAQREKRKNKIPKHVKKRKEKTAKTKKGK
UniProt Q13546: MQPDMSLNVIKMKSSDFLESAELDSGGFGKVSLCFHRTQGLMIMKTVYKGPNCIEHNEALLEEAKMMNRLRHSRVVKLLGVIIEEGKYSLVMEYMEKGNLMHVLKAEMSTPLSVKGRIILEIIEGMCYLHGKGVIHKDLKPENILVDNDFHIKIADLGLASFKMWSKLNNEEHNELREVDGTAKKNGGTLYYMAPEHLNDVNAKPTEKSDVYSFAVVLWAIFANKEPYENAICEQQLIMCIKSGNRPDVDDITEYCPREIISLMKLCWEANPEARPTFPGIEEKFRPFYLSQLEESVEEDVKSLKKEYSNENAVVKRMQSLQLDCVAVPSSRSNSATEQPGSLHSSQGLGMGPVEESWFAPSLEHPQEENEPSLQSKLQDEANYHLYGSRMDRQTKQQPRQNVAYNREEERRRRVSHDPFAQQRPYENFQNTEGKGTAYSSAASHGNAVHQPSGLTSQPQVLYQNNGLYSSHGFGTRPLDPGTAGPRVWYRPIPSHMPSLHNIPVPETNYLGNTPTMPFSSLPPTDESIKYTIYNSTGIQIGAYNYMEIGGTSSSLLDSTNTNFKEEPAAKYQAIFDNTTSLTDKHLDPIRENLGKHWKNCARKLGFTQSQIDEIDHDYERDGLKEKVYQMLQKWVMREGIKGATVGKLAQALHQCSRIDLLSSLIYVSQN
UniProt Q01974, whole entry: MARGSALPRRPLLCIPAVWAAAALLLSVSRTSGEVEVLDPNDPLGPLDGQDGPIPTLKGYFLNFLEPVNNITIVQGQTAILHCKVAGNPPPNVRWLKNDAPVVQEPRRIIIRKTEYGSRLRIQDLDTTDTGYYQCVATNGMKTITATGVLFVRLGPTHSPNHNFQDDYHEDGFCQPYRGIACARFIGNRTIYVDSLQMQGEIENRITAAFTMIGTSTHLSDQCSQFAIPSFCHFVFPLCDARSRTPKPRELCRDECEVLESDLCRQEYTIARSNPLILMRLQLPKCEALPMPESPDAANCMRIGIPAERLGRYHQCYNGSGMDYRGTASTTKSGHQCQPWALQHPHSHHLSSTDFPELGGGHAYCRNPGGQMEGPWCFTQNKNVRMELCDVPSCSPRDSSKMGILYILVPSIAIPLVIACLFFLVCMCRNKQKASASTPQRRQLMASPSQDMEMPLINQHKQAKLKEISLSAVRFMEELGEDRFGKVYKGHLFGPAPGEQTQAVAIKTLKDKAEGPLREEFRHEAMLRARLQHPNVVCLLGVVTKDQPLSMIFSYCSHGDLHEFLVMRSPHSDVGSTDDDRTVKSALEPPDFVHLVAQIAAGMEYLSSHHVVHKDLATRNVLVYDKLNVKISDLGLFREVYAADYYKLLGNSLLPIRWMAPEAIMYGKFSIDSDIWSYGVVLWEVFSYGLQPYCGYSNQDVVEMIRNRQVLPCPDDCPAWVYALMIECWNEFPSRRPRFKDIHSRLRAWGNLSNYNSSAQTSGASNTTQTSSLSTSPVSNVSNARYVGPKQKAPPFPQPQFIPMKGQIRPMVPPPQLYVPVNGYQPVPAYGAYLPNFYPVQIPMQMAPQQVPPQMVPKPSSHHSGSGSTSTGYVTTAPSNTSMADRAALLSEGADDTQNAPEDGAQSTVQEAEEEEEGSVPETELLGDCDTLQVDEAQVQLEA
UniProt Q15418, whole entry: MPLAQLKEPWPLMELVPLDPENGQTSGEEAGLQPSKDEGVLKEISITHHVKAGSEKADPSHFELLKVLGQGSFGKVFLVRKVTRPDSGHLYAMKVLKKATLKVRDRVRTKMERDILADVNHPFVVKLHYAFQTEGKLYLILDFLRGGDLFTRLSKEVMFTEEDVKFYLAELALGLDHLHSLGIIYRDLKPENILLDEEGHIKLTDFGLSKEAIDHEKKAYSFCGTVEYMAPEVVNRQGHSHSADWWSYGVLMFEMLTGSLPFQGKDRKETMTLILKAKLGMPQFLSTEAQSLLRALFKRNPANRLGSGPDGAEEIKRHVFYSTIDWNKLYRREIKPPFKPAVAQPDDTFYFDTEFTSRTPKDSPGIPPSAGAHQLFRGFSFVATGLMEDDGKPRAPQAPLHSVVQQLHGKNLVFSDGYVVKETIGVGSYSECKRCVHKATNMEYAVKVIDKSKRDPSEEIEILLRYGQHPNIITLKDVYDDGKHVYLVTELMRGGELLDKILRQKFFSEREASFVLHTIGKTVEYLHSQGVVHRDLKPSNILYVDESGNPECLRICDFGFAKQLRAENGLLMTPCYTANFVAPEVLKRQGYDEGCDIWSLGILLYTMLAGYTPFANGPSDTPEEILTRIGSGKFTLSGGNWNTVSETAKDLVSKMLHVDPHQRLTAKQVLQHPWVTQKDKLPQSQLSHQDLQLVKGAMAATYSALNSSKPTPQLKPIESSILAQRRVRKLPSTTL
UniProt Q9NYA1, whole entry: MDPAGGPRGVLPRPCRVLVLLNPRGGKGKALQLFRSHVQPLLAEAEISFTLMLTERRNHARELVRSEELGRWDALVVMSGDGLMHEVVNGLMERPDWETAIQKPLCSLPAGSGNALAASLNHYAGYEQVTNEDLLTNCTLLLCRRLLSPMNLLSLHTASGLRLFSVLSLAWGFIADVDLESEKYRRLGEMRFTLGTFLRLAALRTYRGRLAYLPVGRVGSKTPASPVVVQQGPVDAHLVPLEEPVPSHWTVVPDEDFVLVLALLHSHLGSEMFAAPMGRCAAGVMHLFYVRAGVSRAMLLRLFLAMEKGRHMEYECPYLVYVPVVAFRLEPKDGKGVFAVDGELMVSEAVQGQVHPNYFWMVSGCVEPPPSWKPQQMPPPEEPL
UniProt Q9Y6E0: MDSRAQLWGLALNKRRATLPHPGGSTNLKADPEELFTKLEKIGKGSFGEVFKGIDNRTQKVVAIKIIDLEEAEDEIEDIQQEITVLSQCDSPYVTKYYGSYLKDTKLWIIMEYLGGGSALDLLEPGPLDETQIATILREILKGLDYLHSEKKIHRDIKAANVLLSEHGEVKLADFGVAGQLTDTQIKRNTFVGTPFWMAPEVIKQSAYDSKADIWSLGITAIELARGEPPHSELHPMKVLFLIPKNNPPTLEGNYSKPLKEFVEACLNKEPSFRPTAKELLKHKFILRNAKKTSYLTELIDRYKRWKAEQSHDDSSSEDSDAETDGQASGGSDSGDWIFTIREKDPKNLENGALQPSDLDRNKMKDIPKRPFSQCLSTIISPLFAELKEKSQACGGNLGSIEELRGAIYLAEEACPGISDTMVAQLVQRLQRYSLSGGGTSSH

Legend:
Experiment in all cases: kinase-Nluc reporter destabilization hit call (1 = scored as downregulated) (binary); higher = compound decreases kinase abundance
Details in all cases: K562; 2-18 h
RET = RET (UniProt P07949)
[1] = molecular target: RET_M918T (clone: RET_mut) (UniProt P07949)
RIOK1 = RIOK1 (UniProt Q9BRS2)
RIPK1 = RIPK1 (UniProt Q13546)
RIPK2 = RIPK2 (UniProt O43353)
ROR2 = ROR2 (UniProt Q01974)
RPS6KA1 = RPS6KA1 (UniProt Q15418)
SPHK1 = SPHK1 (UniProt Q9NYA1)
SRC = SRC (UniProt P12931)
STK24 = STK24 (UniProt Q9Y6E0)

Measured: kinase-Nluc reporter destabilization hit call

O=C1CCC(N2C(=O)c3cccc(OCCCCCOc4ccc(CC(=O)Nc5cc(C6CCC6)[nH]n5)cc4)c3C2=O)C(=O)N1 (stereo not given) [PROTAC CDK9 Degrader-1] (10 µM)
inactive: RET 0 | [1] 0 | RIOK1 = 0 | RIPK1 = 0 | RIPK2 = 0 | ROR2 = 0 | RPS6KA1 = 0 | SPHK1 = 0 | SRC 0 | STK24 = 0

CCCCNc1ncc2c(-c3ccc(F)cc3)nn(CC3CCC(N)CC3)c2n1 (stereo not given) (2.5 µM)
inactive: RET 0 | [1] 0 | RIOK1 = 0 | RIPK1 = 0 | RIPK2 = 0 | ROR2 = 0 | RPS6KA1 = 0 | SPHK1 = 0 | SRC 0 | STK24 = 0

Fc1ccc(Cl)cc1-c1nc(Nc2ccncc2)c2nccnc2n1 (10 µM)
inactive: RET 0 | [1] 0 | RIOK1 = 0 | RIPK1 = 0 | RIPK2 = 0 | ROR2 = 0 | RPS6KA1 = 0 | SPHK1 = 0 | SRC 0 | STK24 = 0

Cc1ncsc1-c1ccc(CNC(=O)[C@@H]2C[C@@H](O)CN2C(=O)[C@@H](NC(=O)COCCOc2ccc(-c3cc(Nc4ccc(OC(F)(F)F)cc4)ncn3)cc2)C(C)(C)C)cc1 (2.5 µM)
inactive: RET 0 | [1] 0 | RIOK1 = 0 | RIPK1 = 0 | RIPK2 = 0 | ROR2 = 0 | RPS6KA1 = 0 | SPHK1 = 0 | SRC 0 | STK24 = 0

CC1(C)CN(C(=O)c2ccc(-c3cccc4nc(NC(=O)C5CC5)nn34)cc2)C1 [Solcitinib] (10 µM)
inactive: RET 0 | [1] 0 | RIOK1 = 0 | RIPK1 = 0 | RIPK2 = 0 | ROR2 = 0 | RPS6KA1 = 0 | SPHK1 = 0 | SRC 0 | STK24 = 0

COc1cccc(-c2cc(=O)c3ccccc3o2)c1N (10 µM)
inactive: RET 0 | [1] 0 | RIOK1 = 0 | RIPK1 = 0 | RIPK2 = 0 | ROR2 = 0 | RPS6KA1 = 0 | SPHK1 = 0 | SRC 0 | STK24 = 0

COc1cc(N2CCC(N3CCN(C)CC3)CC2)ccc1Nc1ncnc(Nc2ccccc2S(=O)(=O)C(C)C)n1 (10 µM)
inactive: RET 0 | [1] 0 | RIOK1 = 0 | RIPK1 = 0 | RIPK2 = 0 | ROR2 = 0 | RPS6KA1 = 0 | SPHK1 = 0 | SRC 0 | STK24 = 0

Cc1n[nH]c2ncc(C(=O)N3CCC[C@H]3c3ccc(Cl)cc3)cc12 (10 µM)
inactive: RET 0 | [1] 0 | RIOK1 = 0 | RIPK1 = 0 | RIPK2 = 0 | ROR2 = 0 | RPS6KA1 = 0 | SPHK1 = 0 | SRC 0 | STK24 = 0

O=C(Nc1ccccc1C(=O)NC1CCCCNC1=O)c1cc2ccccc2s1 (stereo not given) (10 µM)
inactive: RET 0 | [1] 0 | RIOK1 = 0 | RIPK1 = 0 | RIPK2 = 0 | ROR2 = 0 | RPS6KA1 = 0 | SPHK1 = 0 | SRC 0 | STK24 = 0

Cn1cnc2c(F)c(Nc3ccc(Br)cc3F)c(C(=O)NOCCO)cc21 [Binimetinib] (10 µM)
inactive: RET 0 | [1] 0 | RIOK1 = 0 | RIPK1 = 0 | RIPK2 = 0 | ROR2 = 0 | RPS6KA1 = 0 | SPHK1 = 0 | SRC 0 | STK24 = 0

CC(=O)O/N=C1/C(c2c(O)[nH]c3cc(Br)ccc23)=Nc2ccccc21 [BIO-acetoxime] (10 µM)
inactive: RET 0 | [1] 0 | RIOK1 = 0 | RIPK1 = 0 | RIPK2 = 0 | ROR2 = 0 | RPS6KA1 = 0 | SPHK1 = 0 | SRC 0 | STK24 = 0

COc1ccc2nc3ccc(OC)cc3c(SCCCN)c2c1 (10 µM)
inactive: RET 0 | [1] 0 | RIOK1 = 0 | RIPK1 = 0 | RIPK2 = 0 | ROR2 = 0 | RPS6KA1 = 0 | SPHK1 = 0 | SRC 0 | STK24 = 0

COc1cc2nccc(Nc3cccc(Oc4ccccc4)c3)c2cc1OC (2.5 µM)
inactive: RET 0 | [1] 0 | RIOK1 = 0 | RIPK1 = 0 | RIPK2 = 0 | ROR2 = 0 | RPS6KA1 = 0 | SPHK1 = 0 | SRC 0 | STK24 = 0

Some of these compounds in order of SMILES length, ascending:
COc1cccc(-c2cc(=O)c3ccccc3o2)c1N (10 µM)
inactive: RET 0 | [1] 0 | RIOK1 = 0 | RIPK1 = 0 | RIPK2 = 0 | ROR2 = 0 | RPS6KA1 = 0 | SPHK1 = 0 | SRC 0 | STK24 = 0

COc1ccc2nc3ccc(OC)cc3c(SCCCN)c2c1 (10 µM)
inactive: RET 0 | [1] 0 | RIOK1 = 0 | RIPK1 = 0 | RIPK2 = 0 | ROR2 = 0 | RPS6KA1 = 0 | SPHK1 = 0 | SRC 0 | STK24 = 0

O=C(Nc1ccccc1C(=O)NC1CCCCNC1=O)c1cc2ccccc2s1 (stereo not given) (10 µM)
inactive: RET 0 | [1] 0 | RIOK1 = 0 | RIPK1 = 0 | RIPK2 = 0 | ROR2 = 0 | RPS6KA1 = 0 | SPHK1 = 0 | SRC 0 | STK24 = 0

Cc1n[nH]c2ncc(C(=O)N3CCC[C@H]3c3ccc(Cl)cc3)cc12 (10 µM)
inactive: RET 0 | [1] 0 | RIOK1 = 0 | RIPK1 = 0 | RIPK2 = 0 | ROR2 = 0 | RPS6KA1 = 0 | SPHK1 = 0 | SRC 0 | STK24 = 0

CC1(C)CN(C(=O)c2ccc(-c3cccc4nc(NC(=O)C5CC5)nn34)cc2)C1 [Solcitinib] (10 µM)
inactive: RET 0 | [1] 0 | RIOK1 = 0 | RIPK1 = 0 | RIPK2 = 0 | ROR2 = 0 | RPS6KA1 = 0 | SPHK1 = 0 | SRC 0 | STK24 = 0

COc1cc(N2CCC(N3CCN(C)CC3)CC2)ccc1Nc1ncnc(Nc2ccccc2S(=O)(=O)C(C)C)n1 (10 µM)
inactive: RET 0 | [1] 0 | RIOK1 = 0 | RIPK1 = 0 | RIPK2 = 0 | ROR2 = 0 | RPS6KA1 = 0 | SPHK1 = 0 | SRC 0 | STK24 = 0

Cc1ncsc1-c1ccc(CNC(=O)[C@@H]2C[C@@H](O)CN2C(=O)[C@@H](NC(=O)COCCOc2ccc(-c3cc(Nc4ccc(OC(F)(F)F)cc4)ncn3)cc2)C(C)(C)C)cc1 (2.5 µM)
inactive: RET 0 | [1] 0 | RIOK1 = 0 | RIPK1 = 0 | RIPK2 = 0 | ROR2 = 0 | RPS6KA1 = 0 | SPHK1 = 0 | SRC 0 | STK24 = 0

Next part

CN(C)CCn1cc2cc(NC(=O)c3cccc(C(F)(F)F)n3)c(C(C)(C)O)cc2n1 (10 µM)
inactive: RET 0 | [1] 0 | RIOK1 = 0 | RIPK1 = 0 | RIPK2 = 0 | ROR2 = 0 | RPS6KA1 = 0 | SPHK1 = 0 | SRC 0 | STK24 = 0

Nc1[nH]nc2nnc(-c3c(-c4ccccc4)nn4ccccc34)cc12 (10 µM)
inactive: RET 0 | [1] 0 | RIOK1 = 0 | RIPK1 = 0 | RIPK2 = 0 | ROR2 = 0 | RPS6KA1 = 0 | SPHK1 = 0 | SRC 0 | STK24 = 0

CCC(F)(F)c1cc(N2CCC(S(C)(=O)=O)CC2)nc2sc(C(N)=O)c(N)c12 (10 µM)
inactive: RET 0 | [1] 0 | RIOK1 = 0 | RIPK1 = 0 | RIPK2 = 0 | ROR2 = 0 | RPS6KA1 = 0 | SPHK1 = 0 | SRC 0 | STK24 = 0

CC1(C)C=Cc2c(ccc(C(=O)/C=C/c3ccc(O)cc3)c2O)O1 [4-Hydroxylonchocarpin] (10 µM)
inactive: RET 0 | [1] 0 | RIOK1 = 0 | RIPK1 = 0 | RIPK2 = 0 | ROR2 = 0 | RPS6KA1 = 0 | SPHK1 = 0 | SRC 0 | STK24 = 0

O=C(Nc1ccc(F)cc1F)C(NC(=S)Nc1cc(C(F)(F)F)cc(C(F)(F)F)c1)c1ccccc1 (racemic) (2.5 µM)
inactive: RET 0 | [1] 0 | RIOK1 = 0 | RIPK1 = 0 | RIPK2 = 0 | ROR2 = 0 | RPS6KA1 = 0 | SPHK1 = 0 | SRC 0 | STK24 = 0

COc1ccc(CN2CCC(c3ccc4nc(C(=O)N5CCN(Cc6ccc(C(F)(F)F)cc6)CC5)[nH]c4c3)CC2)cn1 (2.5 µM)
inactive: RET 0 | [1] 0 | RIOK1 = 0 | RIPK1 = 0 | RIPK2 = 0 | ROR2 = 0 | RPS6KA1 = 0 | SPHK1 = 0 | SRC 0 | STK24 = 0

CC(C)Cn1ncc2cc(Oc3ccc(F)cc3F)c(C(=O)NCCN(C)C)cc21 [p38α inhibitor 1] (10 µM)
inactive: RET 0 | [1] 0 | RIOK1 = 0 | RIPK1 = 0 | RIPK2 = 0 | ROR2 = 0 | RPS6KA1 = 0 | SPHK1 = 0 | SRC 0 | STK24 = 0

CNC(=O)CN1CCC(Oc2cc3c(Nc4cccc(Cl)c4F)ncnc3cc2OC)CC1 [Sapitinib] (10 µM)
inactive: RET 0 | [1] 0 | RIOK1 = 0 | RIPK1 = 0 | RIPK2 = 0 | ROR2 = 0 | RPS6KA1 = 0 | SPHK1 = 0 | SRC 0 | STK24 = 0

Cc1cnc(Cl)nc1-c1ccc(N(Cc2ccc(CNC(=O)C(F)F)cc2)C(=O)c2ccc(O)cc2O)cc1 (10 µM)
inactive: RET 0 | [1] 0 | RIOK1 = 0 | RIPK1 = 0 | RIPK2 = 0 | ROR2 = 0 | RPS6KA1 = 0 | SPHK1 = 0 | SRC 0 | STK24 = 0

C[C@H](Nc1cc2c(-c3ccc4c(c3)OCO4)noc2cn1)c1ccccc1 (10 µM)
inactive: RET 0 | [1] 0 | RIOK1 = 0 | RIPK1 = 0 | RIPK2 = 0 | ROR2 = 0 | RPS6KA1 = 0 | SPHK1 = 0 | SRC 0 | STK24 = 0

CN1C(=O)N[C@@H](Cc2c[nH]c3c(Cl)cccc23)C1=O [Necrostatin 2 (S enantiomer)] (10 µM)
inactive: RET 0 | [1] 0 | RIOK1 = 0 | RIPK1 = 0 | RIPK2 = 0 | ROR2 = 0 | RPS6KA1 = 0 | SPHK1 = 0 | SRC 0 | STK24 = 0

O=C1NC(=O)C(Cc2c[nH]c3c(Cl)cccc23)N1 (stereo not given) [Necroptosis-IN-1] (10 µM)
inactive: RET 0 | [1] 0 | RIOK1 = 0 | RIPK1 = 0 | RIPK2 = 0 | ROR2 = 0 | RPS6KA1 = 0 | SPHK1 = 0 | SRC 0 | STK24 = 0

CO[C@]1(C(=O)N[C@@H](C)c2ccc(-n3cc(F)cn3)nc2)CC[C@H](c2nc(C)cc(Nc3cc(C)[nH]n3)n2)CC1 [Pralsetinib] (10 µM)
inactive: RET 0 | [1] 0 | RIOK1 = 0 | RIPK1 = 0 | RIPK2 = 0 | ROR2 = 0 | RPS6KA1 = 0 | SPHK1 = 0 | SRC 0 | STK24 = 0

CC1=C(C#N)C(c2ccc3[nH]nc(C)c3c2)C(C#N)=C(C)N1 (10 µM)
inactive: RET 0 | [1] 0 | RIOK1 = 0 | RIPK1 = 0 | RIPK2 = 0 | ROR2 = 0 | RPS6KA1 = 0 | SPHK1 = 0 | SRC 0 | STK24 = 0

Cn1cc(-c2nc(N[C@@H]3CCCC[C@@H]3N)c(F)c3c2C(=O)NC3)cn1 [TAK-659 (hydrochloride)] (2 µM)
inactive: RET 0 | [1] 0 | RIOK1 = 0 | RIPK1 = 0 | RIPK2 = 0 | ROR2 = 0 | RPS6KA1 = 0 | SPHK1 = 0 | SRC 0 | STK24 = 0
